Several values for one entry are separate records, joined by “and”; a condition that tells them apart may be missing. Equal values may be shown once. Where a name gives a salt, the structure may show the parent alone. ± gives the standard deviation of the averaged measurements. The list shows a part of the results. Repeats are few or missing, and single values can be far off.
System: RAW 264.7
Assay: cell viability (MTT) relative to vehicle control; higher = more viable cells
Details: stimulus: HMGB1 5 ug/ml, 18 h
[1] = compound concentration: 1 ug/ml

SMILES	cell viability (compound concentration: 3 uM)	cell viability [1] [%]
C[C@H](CCC(=O)O)[C@H]1CC[C@H]2[C@@H]3[C@H](O)C[C@@H]4C[C@H](O)CC[C@]4(C)[C@H]3CC[C@]12C [Chenodiol]	106%	–
C[C@H](CCC(=O)O)[C@H]1CC[C@H]2[C@@H]3[C@H](O)C[C@@H]4C[C@H](O)CC[C@]4(C)[C@H]3CC[C@]12C	99.5%	–
O=C1c2ccccc2C(=O)c2c1ccc(O)c2O [Alizarin]	–	107
Cc1nc(=O)c2cc(CN(C)c3ccc(C(=O)N[C@@H](CCC(=O)O)C(=O)O)s3)ccc2[nH]1	97.9%	–
CN1CCN(CCCN2c3ccccc3Sc3ccc(Cl)cc32)CC1 [Prochlorperazine dimaleate]	106 ± 14%	–
CN1CCN(CCCN2c3ccccc3Sc3ccc(Cl)cc32)CC1	97.3% and 92.4%	–
CC(=O)[C@]1(O)Cc2c(O)c3c(c(O)c2[C@@H](O[C@H]2C[C@H](N)[C@H](O)[C@H](C)O2)C1)C(=O)c1ccccc1C3=O [Idarubicin]	4.09 ± 0.6%	–
CC(=O)[C@]1(O)Cc2c(O)c3c(c(O)c2[C@@H](O[C@H]2C[C@H](N)[C@H](O)[C@H](C)O2)C1)C(=O)c1ccccc1C3=O	2.08%	–
Cn1ccc2cc(NC(=O)Nc3cccnc3)ccc21	102%	–
O=c1oc2ccccc2c(O)c1Cc1c(O)c2ccccc2oc1=O	96.9%	–
O=c1oc2ccccc2c(O)c1Cc1c(O)c2ccccc2oc1=O [Dicumarol]	133%	–
O=C(O)COC(=O)Cc1ccccc1Nc1c(Cl)cccc1Cl [Aceclofenac]	95.5 ± 4.3%	–
C[C@@H]1C[C@H]2[C@@H]3CCC4=CC(=O)C=C[C@]4(C)[C@@]3(F)[C@@H](O)C[C@]2(C)[C@@]1(O)C(=O)CO	106%	–
C[C@@H]1C[C@H]2[C@@H]3CCC4=CC(=O)C=C[C@]4(C)[C@@]3(F)[C@@H](O)C[C@]2(C)[C@@]1(O)C(=O)CO [Dexamethasone]	113%	–
OC1(c2ccc(Cl)c(C(F)(F)F)c2)CCN(CCCC(c2ccc(F)cc2)c2ccc(F)cc2)CC1	91.9%	–
COc1cc2ccc(=O)oc2cc1OC1OC(COC2OC(C)C(O)C(O)C2O)C(O)C(O)C1OC1OC(C)C(O)C(O)C1O (stereo unspecified) [Haploperozide]	–	108
N=C(N)SCCc1c[nH]cn1 [Imetit dihydrobromide]	102%	–
CC1(C)O[C@@H]2C[C@H]3[C@@H]4CCC5=CC(=O)C=C[C@]5(C)[C@@]4(F)[C@@H](O)C[C@]3(C)[C@]2(C(=O)CO)O1	113%	–
O=C(O)CCCc1ccccc1 [Sodium Phenylbutyrate]	97.4%	–
CC(C)NCC(O)COc1ccc(CC(N)=O)cc1 (racemic) [(±)-Atenolol]	111%	–
Cc1cnc(NC(=O)C2=C(O)c3ccccc3S(=O)(=O)N2C)s1 [Meloxicam sodium]	105%	–
Cc1cnc(NC(=O)C2=C(O)c3ccccc3S(=O)(=O)N2C)s1 [Meloxicam]	97.8 ± 9.9%	–
Cc1cnc(NC(=O)C2=C(O)c3ccccc3S(=O)(=O)N2C)s1	104%	–
CCCCCCCC/C=C/CCCCCCCCOP(=O)([O-])OCC[N+](C)(C)C	143%	–
OC[C@H]1O[C@@H](n2cnc3c(NCc4ccco4)ncnc32)[C@H](O)[C@@H]1O [Kinetin-9-riboside]	–	94.8
CC1CC(OC(=O)C(O)c2ccccc2)CC(C)(C)N1C (stereo unspecified)	110%	–

Quoted from the listing:
Value of C[C@H](CCC(=O)O)[C@H]1CC[C@H]2[C@@H]3[C@H](O)C[C@@H]4C[C@H](O)CC[C@]4(C)[C@H]3CC[C@]12C [Chenodiol] under cell viability (compound concentration: 3 uM): 106%
Value of CN1CCN(CCCN2c3ccccc3Sc3ccc(Cl)cc32)CC1 under cell viability (compound concentration: 3 uM): 97.3% and 92.4%
Value of C[C@@H]1C[C@H]2[C@@H]3CCC4=CC(=O)C=C[C@]4(C)[C@@]3(F)[C@@H](O)C[C@]2(C)[C@@]1(O)C(=O)CO under cell viability (compound concentration: 3 uM): 106%
Value of CC1CC(OC(=O)C(O)c2ccccc2)CC(C)(C)N1C (stereo unspecified) under cell viability (compound concentration: 3 uM): 110%

Next part:

SMILES	cell viability (compound concentration: 3 uM)	cell viability [1] [%]
CC1CC(OC(=O)C(O)c2ccccc2)CC(C)(C)N1C (stereo unspecified) [Eucatropine hydrochloride]	137%	–
O=C(N[C@@H](Cc1c[nH]c2ccccc12)C(=O)O)OCC1c2ccccc2-c2ccccc21 [Nalpha-FMOC-L-Tryptophan]	–	117
C1CCN2C[C@@H]3C[C@@H](CN4CCCC[C@@H]34)[C@H]2C1	113%	–
CCN1CCN(c2cc3c(cc2F)c(=O)c(C(=O)O)cn3C2CC2)CC1	99.4 ± 11%	–
CCN1CCN(c2cc3c(cc2F)c(=O)c(C(=O)O)cn3C2CC2)CC1 [Enrofloxacin]	102%	–
CCN1CCC[C@H]1CNC(=O)c1c(OC)ccc(Br)c1OC [Remoxipride Hydrochloride]	69.5%	–
CCN1CCC[C@H]1CNC(=O)c1c(OC)ccc(Br)c1OC [Remoxipride]	102%	–
COc1cc(NS(C)(=O)=O)ccc1Nc1c2ccccc2nc2ccccc12	83.6 ± 4.1%	–
COc1cc(NS(C)(=O)=O)ccc1Nc1c2ccccc2nc2ccccc12 [Amsacrine hydrochloride]	19.4%	–
CN(C)c1ccc(/C=C2/C(=O)Nc3ccccc32)cc1	119%	–
Cc1nnc(NS(=O)(=O)c2ccc(N)cc2)s1	102%	–
Cc1nnc(NS(=O)(=O)c2ccc(N)cc2)s1 [Sulfamethizole]	132%	–
CC(=O)OCC1OC(Oc2cc(OC(C)=O)c3c(=O)c(-c4ccc(OC(C)=O)c(OC(C)=O)c4)coc3c2)C(OC(C)=O)C(OC(C)=O)C1OC(C)=O (stereo unspecified) [Orobole 7-O-Glucoside, Acetate]	–	107
COc1cc(O)c2c(=O)cc(-c3ccccc3)oc2c1	–	93.8
CC(C)C1=CC2=CC[C@@H]3[C@](C)(CCC[C@@]3(C)C(=O)O)[C@H]2CC1 [Abietic acid]	–	95.3
C[C@H]1C[C@H]2[C@@H]3CCC4=CC(=O)C=C[C@]4(C)[C@@]3(F)[C@@H](O)C[C@]2(C)[C@@]1(O)C(=O)CO [Betamethasone]	99.1 ± 8.4%	–
C[C@H]1C[C@H]2[C@@H]3CCC4=CC(=O)C=C[C@]4(C)[C@@]3(F)[C@@H](O)C[C@]2(C)[C@@]1(O)C(=O)CO	114%	–
CCCn1c(=O)c2c(ncn2C)n(CCC)c1=O [1,3-Dipropyl-7-methylxanthine]	98.3%	–
Oc1ccc(OCc2ccccc2)cc1 [Monobenzone]	101%	–
CC1=Nc2ccc(Cl)cc2S(=O)(=O)N1 [Diazoxide]	103 ± 7.1%	–
CC1=Nc2ccc(Cl)cc2S(=O)(=O)N1	96 ± 3.5%	–
CO[C@@]12[C@H](COC(N)=O)C3=C(C(=O)C(C)=C(N)C3=O)N1C[C@@H]1N[C@@H]12 [Mitomycin C]	97.3%	–
CO[C@@]12[C@H](COC(N)=O)C3=C(C(=O)C(C)=C(N)C3=O)N1C[C@@H]1N[C@@H]12	99.1 ± 11%	–
CC(C(=O)O)c1ccc(N2Cc3ccccc3C2=O)cc1 (stereo unspecified) [Indoprofen]	90.6%	–
CC(C(=O)O)c1ccc(N2Cc3ccccc3C2=O)cc1 (stereo unspecified)	106%	–
